Assay results taken from paper PMC8440614.
These are yes or no findings as the source states them, for the method shown. Binding seen in cells or lysates may run through a third protein. Some entries that bind do so weakly or less than the wild type.

Chains of the proteins cited; added tags and fusions are not shown.
UniProt O75626: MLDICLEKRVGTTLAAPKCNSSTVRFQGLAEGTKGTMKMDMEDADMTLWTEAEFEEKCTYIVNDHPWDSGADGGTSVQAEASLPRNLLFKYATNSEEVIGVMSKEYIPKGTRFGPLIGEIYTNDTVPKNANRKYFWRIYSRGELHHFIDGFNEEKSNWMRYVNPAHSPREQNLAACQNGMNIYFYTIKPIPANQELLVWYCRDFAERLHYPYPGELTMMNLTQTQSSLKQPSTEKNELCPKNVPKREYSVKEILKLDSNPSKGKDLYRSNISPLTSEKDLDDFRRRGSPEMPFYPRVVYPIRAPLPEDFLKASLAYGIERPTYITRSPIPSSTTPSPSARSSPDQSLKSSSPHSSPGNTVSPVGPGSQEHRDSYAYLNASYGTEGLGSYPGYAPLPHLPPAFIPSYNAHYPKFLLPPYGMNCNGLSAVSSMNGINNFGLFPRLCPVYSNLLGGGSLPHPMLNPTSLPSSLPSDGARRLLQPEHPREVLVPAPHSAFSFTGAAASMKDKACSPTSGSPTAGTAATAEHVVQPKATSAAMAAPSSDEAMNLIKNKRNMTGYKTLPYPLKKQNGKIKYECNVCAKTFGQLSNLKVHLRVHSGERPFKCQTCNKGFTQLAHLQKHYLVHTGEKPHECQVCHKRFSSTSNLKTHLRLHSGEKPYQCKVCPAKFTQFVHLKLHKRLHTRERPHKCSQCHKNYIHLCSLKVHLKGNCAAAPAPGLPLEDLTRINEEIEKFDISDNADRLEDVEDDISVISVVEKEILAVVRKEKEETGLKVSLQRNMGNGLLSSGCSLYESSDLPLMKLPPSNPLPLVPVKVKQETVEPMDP

Experiments:
[1] = biological target: T1, Absent in melanoma 2 (AIM2) (human (endogenous in tonsil CD19+ B cells)) (UniProt O14862); experiment: co-IP; endogenous proteins; total proteins of CD19+ B cells from human tonsils; detection by western blotting
T1 sequence: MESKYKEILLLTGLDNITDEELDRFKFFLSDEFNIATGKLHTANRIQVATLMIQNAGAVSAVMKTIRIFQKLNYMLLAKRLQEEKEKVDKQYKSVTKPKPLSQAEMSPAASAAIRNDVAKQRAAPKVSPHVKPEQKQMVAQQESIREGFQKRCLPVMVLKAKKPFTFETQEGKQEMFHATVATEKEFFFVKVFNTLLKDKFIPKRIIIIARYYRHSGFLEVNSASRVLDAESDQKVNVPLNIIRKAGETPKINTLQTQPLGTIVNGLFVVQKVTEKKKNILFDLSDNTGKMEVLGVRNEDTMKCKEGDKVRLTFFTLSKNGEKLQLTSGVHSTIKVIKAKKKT

[2] = substrate: B lymphocyte-induced maturation protein 1 (Blimp-1) (human (endogenous in tonsil CD19+ B cells)) (UniProt O75626); experiment: as above

How did the binding [1] turn out when “B lymphocyte-induced maturation protein 1 (Blimp-1) (from UniProt O75626 1-825)” was run?
Its binding is “binds”.

B1: Absent in melanoma 2 (AIM2) (protein, UniProt O14862 1-343)
chain: T1 sequence
B1 was tested. Which binding [2] did it give?
Its binding is “binds”.
